This passage reports binding results from publication PMC10774338.

Amino acid sequences for entries named in this document (tags omitted).
UniProt P62491: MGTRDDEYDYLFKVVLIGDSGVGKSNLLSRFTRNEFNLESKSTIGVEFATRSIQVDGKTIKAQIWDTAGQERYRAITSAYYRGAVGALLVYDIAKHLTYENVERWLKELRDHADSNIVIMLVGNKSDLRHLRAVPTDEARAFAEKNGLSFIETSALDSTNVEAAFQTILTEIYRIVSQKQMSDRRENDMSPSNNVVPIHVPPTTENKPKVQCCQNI

Experiment [1] deals with T1, Myc-tagged WDR44 D669N (human) (UniProt Q5JSH3).
T1 sequence: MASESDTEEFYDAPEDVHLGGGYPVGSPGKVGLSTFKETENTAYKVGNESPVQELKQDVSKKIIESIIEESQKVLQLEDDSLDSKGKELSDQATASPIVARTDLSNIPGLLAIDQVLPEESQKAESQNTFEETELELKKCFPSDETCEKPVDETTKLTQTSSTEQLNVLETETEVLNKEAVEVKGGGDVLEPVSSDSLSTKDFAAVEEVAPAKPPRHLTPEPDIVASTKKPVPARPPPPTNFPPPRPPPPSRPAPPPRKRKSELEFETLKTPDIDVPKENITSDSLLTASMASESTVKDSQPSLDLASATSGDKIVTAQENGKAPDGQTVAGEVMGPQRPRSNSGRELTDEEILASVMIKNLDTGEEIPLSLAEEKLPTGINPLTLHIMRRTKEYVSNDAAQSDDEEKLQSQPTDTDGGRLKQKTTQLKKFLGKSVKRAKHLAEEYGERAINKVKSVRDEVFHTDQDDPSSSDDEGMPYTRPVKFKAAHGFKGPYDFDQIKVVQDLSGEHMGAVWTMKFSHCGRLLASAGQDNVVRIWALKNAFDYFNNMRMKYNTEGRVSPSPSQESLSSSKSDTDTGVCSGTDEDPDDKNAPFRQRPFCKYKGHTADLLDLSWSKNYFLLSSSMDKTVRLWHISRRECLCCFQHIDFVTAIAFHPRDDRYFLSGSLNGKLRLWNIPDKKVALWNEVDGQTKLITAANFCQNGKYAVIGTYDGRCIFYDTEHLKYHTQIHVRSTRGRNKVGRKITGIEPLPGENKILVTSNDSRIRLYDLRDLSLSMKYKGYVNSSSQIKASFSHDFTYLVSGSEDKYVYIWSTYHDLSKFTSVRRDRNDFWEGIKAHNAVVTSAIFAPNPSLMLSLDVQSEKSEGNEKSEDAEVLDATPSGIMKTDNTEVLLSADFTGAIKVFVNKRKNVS
The experiment is described as follows: co-IP; GFP-RAB11A and Myc-WDR44 wild-type or variant coexpressed in 293T for 48 h; Myc-tagged proteins immunoprecipitated from lysate (150 mM NaCl, 20 mM Tris HCl pH 8.0, 10% glycerol, 1% Triton X-100; Protein G Sepharose), blots probed for GFP and Myc; also done after 3 h and 24 h serum starvation (wild-type, G782C, S764F).

Experiment [2] concerns the target T2, Myc-tagged WDR44 H839R (human) (UniProt Q5JSH3).
T2 sequence: T1 sequence with N669D, H839R
The experiment is described as above.

Positions count from the first letter of the chain named. No constants are given. Whether binding was seen depends on the method and setting. In cells and extracts the contact can be indirect. Some entries that bind do so weakly or less than the wild type. Where a sequence is shown, tags or fusion partners need not be part of it.

As to “GFP-tagged RAB11A (from UniProt P62491 1-216)”, the binding result in experiment [1] and in experiment [2] was “binds” in each case.
